# Data published in article PMC4385868.
# Protein sequences, listed by entry. Tags and fused reporters are not part of them.
# UniProt P35222: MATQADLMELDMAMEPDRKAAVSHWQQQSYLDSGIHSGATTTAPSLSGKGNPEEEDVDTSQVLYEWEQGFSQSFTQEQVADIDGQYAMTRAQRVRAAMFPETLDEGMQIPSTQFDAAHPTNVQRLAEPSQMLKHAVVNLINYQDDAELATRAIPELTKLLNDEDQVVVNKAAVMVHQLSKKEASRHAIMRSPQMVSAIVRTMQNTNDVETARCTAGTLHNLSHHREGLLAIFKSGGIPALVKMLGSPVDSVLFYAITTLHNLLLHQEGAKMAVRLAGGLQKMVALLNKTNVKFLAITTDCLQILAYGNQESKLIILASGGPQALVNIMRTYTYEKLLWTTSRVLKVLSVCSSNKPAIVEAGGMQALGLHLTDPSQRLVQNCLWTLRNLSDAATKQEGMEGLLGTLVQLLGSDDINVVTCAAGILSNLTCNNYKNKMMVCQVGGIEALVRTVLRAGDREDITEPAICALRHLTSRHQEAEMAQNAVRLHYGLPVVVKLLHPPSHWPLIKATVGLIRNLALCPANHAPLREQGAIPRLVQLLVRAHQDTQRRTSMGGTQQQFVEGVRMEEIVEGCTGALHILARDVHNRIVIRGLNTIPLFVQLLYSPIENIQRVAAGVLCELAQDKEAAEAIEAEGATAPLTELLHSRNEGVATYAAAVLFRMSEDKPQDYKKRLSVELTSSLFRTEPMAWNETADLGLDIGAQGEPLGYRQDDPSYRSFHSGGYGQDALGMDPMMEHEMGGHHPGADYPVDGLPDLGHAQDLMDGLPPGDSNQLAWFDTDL
# UniProt Q02248: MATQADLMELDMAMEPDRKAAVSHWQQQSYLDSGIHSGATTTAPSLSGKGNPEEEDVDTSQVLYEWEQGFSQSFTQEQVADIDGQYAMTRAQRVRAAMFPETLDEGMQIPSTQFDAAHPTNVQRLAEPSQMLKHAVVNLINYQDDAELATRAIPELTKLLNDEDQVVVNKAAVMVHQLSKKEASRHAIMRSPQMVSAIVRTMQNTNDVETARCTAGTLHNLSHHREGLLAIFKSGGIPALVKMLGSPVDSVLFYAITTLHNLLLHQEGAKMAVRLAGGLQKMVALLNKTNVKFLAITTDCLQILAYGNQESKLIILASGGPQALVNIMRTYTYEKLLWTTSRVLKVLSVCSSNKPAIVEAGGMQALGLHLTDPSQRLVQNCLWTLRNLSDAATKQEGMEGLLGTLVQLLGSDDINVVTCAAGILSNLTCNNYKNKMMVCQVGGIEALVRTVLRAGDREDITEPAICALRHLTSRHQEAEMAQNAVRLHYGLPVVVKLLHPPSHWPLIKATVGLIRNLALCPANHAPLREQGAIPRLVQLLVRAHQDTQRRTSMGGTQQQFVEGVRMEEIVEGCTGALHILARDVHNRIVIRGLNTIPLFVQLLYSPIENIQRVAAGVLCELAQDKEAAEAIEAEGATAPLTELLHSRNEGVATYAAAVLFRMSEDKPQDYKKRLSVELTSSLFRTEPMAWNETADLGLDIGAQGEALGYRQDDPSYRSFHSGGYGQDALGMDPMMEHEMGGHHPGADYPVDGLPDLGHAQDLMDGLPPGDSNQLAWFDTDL
# Results are given in words; binding and its absence hold for the method and conditions named. In cells and extracts the contact can be indirect. Some entries that bind do so weakly or less than the wild type. For some assays here: Sequences can lack the tags named with a protein.
# Assays:
# [1] = biological target: T1, endogenous Vav1 (human (endogenous in H358 and H441)) (UniProt P15498); assay: co-IP; total cell extracts of H358 and H441 cells precipitated with anti-Vav1 Ab or control IgG (1% NP-40 lysis buffer); partners detected by sequential immunoblotting
# T1 sequence: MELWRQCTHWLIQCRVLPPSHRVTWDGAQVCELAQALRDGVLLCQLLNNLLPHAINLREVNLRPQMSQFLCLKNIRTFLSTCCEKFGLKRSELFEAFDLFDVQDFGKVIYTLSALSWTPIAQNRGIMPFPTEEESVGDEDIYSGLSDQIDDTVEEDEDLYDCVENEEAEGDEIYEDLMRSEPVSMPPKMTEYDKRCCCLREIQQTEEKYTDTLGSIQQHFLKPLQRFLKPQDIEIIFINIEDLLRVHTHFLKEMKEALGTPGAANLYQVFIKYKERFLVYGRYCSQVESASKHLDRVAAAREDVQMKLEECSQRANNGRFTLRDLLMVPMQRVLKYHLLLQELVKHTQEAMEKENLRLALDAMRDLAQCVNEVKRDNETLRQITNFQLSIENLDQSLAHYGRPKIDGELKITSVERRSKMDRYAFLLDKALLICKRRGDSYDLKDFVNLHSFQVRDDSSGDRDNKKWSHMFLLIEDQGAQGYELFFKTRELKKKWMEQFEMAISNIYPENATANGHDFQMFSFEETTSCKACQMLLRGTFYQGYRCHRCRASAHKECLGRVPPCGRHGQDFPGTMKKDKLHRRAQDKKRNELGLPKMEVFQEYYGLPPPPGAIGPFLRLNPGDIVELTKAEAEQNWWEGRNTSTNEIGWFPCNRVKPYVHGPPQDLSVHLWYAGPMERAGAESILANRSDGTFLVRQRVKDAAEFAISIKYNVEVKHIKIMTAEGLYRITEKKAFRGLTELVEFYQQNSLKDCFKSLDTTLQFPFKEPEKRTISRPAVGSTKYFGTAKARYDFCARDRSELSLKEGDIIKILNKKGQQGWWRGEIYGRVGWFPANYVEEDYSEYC
# GST-SH2 (human) = biological target: T2, GST-SH2 (human) (UniProt P15498); assay: pull-down; GST fusion proteins bound to glutathione-Sepharose 4B beads incubated 2 hours with NIH3T3 cell extracts; β-catenin detected by immunoblotting; only the target purified
# T2 sequence: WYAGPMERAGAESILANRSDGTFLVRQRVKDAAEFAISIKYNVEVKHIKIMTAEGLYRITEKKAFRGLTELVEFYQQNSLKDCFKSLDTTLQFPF
Substance,binding [1],binding (GST-SH2 (human))
β-catenin (from UniProt P35222 1-781),binds,–
β-catenin (from UniProt Q02248 1-781),–,binds
